## Library screening results

Chains of the proteins cited; added tags and fusions are not shown.
UniProt E9BF75, entry or part of it: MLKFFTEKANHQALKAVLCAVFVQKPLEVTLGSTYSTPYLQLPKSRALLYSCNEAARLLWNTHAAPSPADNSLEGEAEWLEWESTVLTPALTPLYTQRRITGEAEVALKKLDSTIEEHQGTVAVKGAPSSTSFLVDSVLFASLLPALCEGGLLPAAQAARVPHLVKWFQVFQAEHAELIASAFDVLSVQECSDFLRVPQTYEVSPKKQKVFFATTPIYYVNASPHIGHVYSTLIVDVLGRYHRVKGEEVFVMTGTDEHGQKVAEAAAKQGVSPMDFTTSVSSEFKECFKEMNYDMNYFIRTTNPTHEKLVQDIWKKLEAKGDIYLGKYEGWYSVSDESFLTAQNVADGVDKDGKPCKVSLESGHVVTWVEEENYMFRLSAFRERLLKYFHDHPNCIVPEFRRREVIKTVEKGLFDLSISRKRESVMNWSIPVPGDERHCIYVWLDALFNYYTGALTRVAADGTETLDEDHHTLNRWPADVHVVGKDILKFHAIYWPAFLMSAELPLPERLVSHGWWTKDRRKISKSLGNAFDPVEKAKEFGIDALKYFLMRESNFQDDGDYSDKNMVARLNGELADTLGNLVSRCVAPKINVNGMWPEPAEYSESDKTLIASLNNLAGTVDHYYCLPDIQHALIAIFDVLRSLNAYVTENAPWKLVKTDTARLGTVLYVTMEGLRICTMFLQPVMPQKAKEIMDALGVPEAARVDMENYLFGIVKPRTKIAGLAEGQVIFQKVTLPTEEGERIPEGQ

Measurements from “University of Dundee, Small-Polar-MMV Screening Library” (2021), ChEMBL document CHEMBL3988442.

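Methionyl-tRNA synthetase (putative), Leishmania donovani (UniProt E9BF75). Primary screen of methionyl-tRNA synthetase; the read-out is not stated. The test concentration is not given. The values are filed as inhibition. Of about 68,000 compounds tested this way, about 24 (0.035%) reached 50% or more in at least one test.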

Results are percentages, as filed.
How 0% and 100% were set is not recorded. Most values in the screen are low, and negative values occur.
Compounds were drawn at random from those tested, without regard to their results.

Compound	inhibition
CS(=O)(=O)c1cccc(C(N)c2ccc(F)c(F)c2)c1 (centres undefined)	18.18%
CCn1ncc(S(=O)(=O)NC(C)c2cc(OC)ccc2OC)c1C (centres undefined)	1.579%
NC(=O)CCCNC(=O)Cc1cccc(I)c1	19.27%
Cc1n[nH]cc1CNC1CCN(c2ccccc2)CC1	12.81%
c1cnc(-c2nc(CN3CCCC3Cn3cncn3)cs2)nc1 (centres undefined)	18.31%
Cc1cnn(CCCn2c(C)cc(C(F)(F)F)cc2=O)c1	11.06%
O=C(Nc1ccccc1)C1CN(Cc2ccco2)CC12CCOCC2 (centres undefined)	4.301%
CCCS(=O)(=O)NCc1nc(C)cc(N2CCCC2)n1	5.932%
O=C(c1cccs1)N1CCCn2cnc(COCC3CC3)c2C1	14.84%
CN(Cc1nc(Cc2ccccc2F)no1)CC1Cc2ccccc2O1 (centres undefined)	1.344%
NC(=O)CN(CC1CCOC1)C1CC1 (centres undefined)	5.797%
Cc1ccc(CN2CC3(CCN(C(=O)c4cscn4)C3)C2)s1	16.5%
O=C(CCn1cncn1)NCC(c1ccco1)N1CCCC1 (centres undefined)	22.1%
COCC1COCCC12CCN(Cc1cccs1)CC2 (centres undefined)	5.464%
CC(C)N1CCc2ncn(C(C)C)c2C1C(=O)N1CCN(C)CC1 (centres undefined)	9.783%
COc1c(C2CCCN2CC(=O)Nc2cc(C)nn2C)c(C)nn1C (centres undefined)	24.02%
NC(=O)CN1C[C@@H](c2ccccc2F)[C@@]2(CCCCC(=O)N2)C1	12.79%
Cc1cccc(CN2CC3(CCN(Cc4ccoc4)CC3)OCC2=O)n1	8.629%
COc1nc(C)ccc1CNC(=O)NC(c1ncc(C)s1)C1CC1 (centres undefined)	16.48%
CN(Cc1ccc(N2CCCCC2)cc1)Cc1noc(C(C)(C)C)n1	3.15%
CN(Cc1nc(CC2CC2)no1)CC1Cc2ccccc2O1 (centres undefined)	8.871%
Cc1ccc(C(=O)N(C)Cc2ccc3c(c2)OCCO3)c(=O)[nH]1	6.557%
COc1ccc(CNC(=O)CNc2ccccc2OC)cc1	15.14%
CC(C(N)=O)S(=O)(=O)Cc1cc(Cl)c2c(c1)OCO2 (centres undefined)	9.449%
CN(Cc1cc2n(n1)CCNC2)Cc1n[nH]c2c1CCC2	19.87%
COCCN1Cc2nccn2CC(COCc2csc(C)n2)C1 (centres undefined)	9.29%
COCCCS(=O)(=O)N1CCN(C(=O)CO)CC1	0.8065%
CC(C)c1n[nH]c(C2CN(C(=O)c3ncoc3C(C)C)CCO2)n1 (centres undefined)	13.71%
O=C(N1CCCC1)N1CCOCC2(C1)CN(c1ccccc1)C(=O)CO2 (centres undefined)	5.205%
CC(C)CC(NC(=O)c1ccn(C)c(=O)c1)c1cccs1 (centres undefined)	4.178%
Cc1nc(C2CCCN2CC(=O)N2CCc3ccccc32)no1 (centres undefined)	19.55%
Cc1cc(Cn2cncc(Br)c2=O)on1	6.959%
COCCNC(=O)CCC1CCN(Cc2cccc(SC)c2)CC1	-3.833%
COCCNC(=O)c1ccnn1-c1ccc2ccccn12	0.3623%

The last 2 entries again:

Compound	inhibition
COCCNC(=O)CCC1CCN(Cc2cccc(SC)c2)CC1	-3.833%
COCCNC(=O)c1ccnn1-c1ccc2ccccn12	0.3623%